For 58 compounds, AC50 results are on record in PubChem BioAssay AID1487 (National Center for Advancing Translational Sciences (NCATS), 2009).

The nature of this assay: qHTS Assay for Modulators of Lamin A Splicing. The following applies: HeLa LMNA splicing GFP/RFP minigene ratio, 48 h. In outline:
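S3 HeLa cells stably expressing lamin A-EGFP splicing minigene plus DsRed2, 600 cells/well, 48 h compound exposure at 37C. Laser-scanning cytometry; analysed as GFP (500-530 nm)/RFP (575-640 nm) total intensity ratio; 0.5% DMSO vehicle.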

[1] abbreviates: measured here: RFP viability control channel.
Setting [2] is: measured here: GFP splicing reporter channel.

SMILES strings stand for the structures. Where “and” joins values, the source holds several entries; their conditions need not be identical. Equal entries are not always repeated. Some of the results follow. Further columns of the screen follow, without active or inactive calls. Most of these compounds were active or inconclusive in the main read-out, so they are no random draw. Potencies come from curve fits of mixed quality, noted in brackets.

As a reminder, the AC50 is the concentration at which the activity in the assay is half-maximal. Turning to `CCOP(=O)(OCC)/C(=N/OC(=O)c1ccccc1C)C(N)=O`, the AC50 under setting [1] is 20 µM [rising, partial curve, poor fit].

In the case of `C#CC[N+]1(C)C2CCC1CC(O)C2` (stereo not drawn), the AC50 under setting [1] is 0.141 µM [falling, partial curve, poor fit].

For the compound `C[C@H]1CC[C@@H]2[C@@H](C)C(=O)O[C@H]3O[C@@]4(C)CC[C@H]1[C@@]32OO4`, the AC50 under setting [2] was 0.2 µM [falling, single point] and the AC50 under setting [1] is 0.355 µM [falling, single point].

`CCOC(=O)c1ccc(NC(=O)c2cccn(Cc3ccccc3F)c2=O)cc1`: under setting [1], the AC50 was 7.08 µM [falling, partial curve, poor fit].

As to `NCCCCC(N)C(=O)O` (stereo not drawn), the AC50 reads like this: under setting [2], 35.5 µM [falling, single point]; under setting [1], 28.2 µM [falling, single point].

Take `CC1(C)CC2(CCO1)NCCN1C(=O)CSC12` (stereo not drawn): the AC50 under setting [1] is 0.562 µM [falling, single point].

Take `ClC1C(Cl)C(Cl)C(Cl)C(Cl)C1Cl` (stereo not drawn): the AC50 under setting [2] is 0.794 µM [falling, partial curve] and the AC50 under setting [1] was 0.447 µM [falling, partial curve].

Regarding `CN=C(SCc1cc2c(cc1Cl)OCO2)c1c(O)n(C)c(=O)n(C)c1=O`, the AC50 reads like this: under setting [2], 14.1 µM [rising, single point]; under setting [1], 10 µM [rising, single point].

Take `COc1ccc(NP(=O)(Oc2ccc(Cl)cc2)Oc2ccc(Cl)cc2)cc1OC`: the AC50 under setting [1] is 35.5 µM [rising, single point].

Turning to `O=c1n(Cl)c(=O)n(Cl)c(=O)n1Cl`, the half-maximal activity concentration (AC50) under setting [2] was 20 µM [falling, single point].

As to `O=[N+]([O-])c1ccc(N2CCCCCC2)c2ncccc12`, under setting [2], the AC50 is 35.5 µM [rising, single point].

For `C(#CCN1CCCCC1)COCc1ccccc1`, the AC50 was 2 µM [falling, full curve, poor fit] under setting [2] and 1.58 µM [falling, full curve] under setting [1].

For the compound `CCOC(=O)c1c(C)n(Cc2ccc3c(c2)OCO3)c2ccc(O)cc12`, the AC50 under setting [1] is 20 µM [rising, single point].

With `Nc1c(C(=O)NCc2ccco2)c2nc3ccccc3nc2n1CCN1CCCCC1`, the AC50 under setting [1] is 20 µM [rising, single point].

Turning to `COP(=O)(OC)C(O)C(Cl)(Cl)Cl` (stereo not drawn), the AC50 under setting [1] is 35.5 µM [rising, single point].

Consider `COc1cc2c(cc1OC)-c1c3c(cc4c1[C@@H](C2)N(C)CC4)OCO3`, for which the AC50 under setting [1] was 11.2 µM [rising, partial curve].

Consider `CCCC(C)C1(CC)C(=O)NC(=O)NC1=O` (stereo not drawn), for which the AC50 runs as follows: under setting [2], 5.01 µM [falling, partial curve, poor fit]; under setting [1], 10 µM [rising, partial curve, poor fit].

For `O=Cc1ccco1`, the AC50 under setting [2] was 25.1 µM [rising, single point].

In the case of `O=C(CN1CC=C(c2ccccc2)CC1)NC(=O)NCc1ccccc1`, the concentration at half-maximal activity (AC50) under setting [1] was 0.141 µM [rising, full curve, poor fit].

In the case of `CC(C)(C)C(=O)OC1=CN(Cc2ccccc2)S(=O)(=O)c2ccccc21`, the concentration at half-maximal activity (AC50) under setting [1] was 0.00891 µM [falling, full curve, poor fit].

With `Cc1ccccc1CN1CCN(c2ccc(Cl)cc2)CC1`, the AC50 under setting [1] is 0.158 µM [falling, full curve, poor fit].

For the compound `c1ccc(Cn2ccnc2)cc1`, the AC50 under setting [2] is 0.00355 µM [rising, full curve, poor fit].

For `Cc1ccc(-c2nn(Cc3ccccc3)cc2C=O)cc1C`, under setting [1], the AC50 was 12.6 µM [rising, partial curve].

For `CCn1c(NN=O)nc2ccccc21`, the AC50 was 5.62 µM [falling, partial curve, poor fit] under setting [2] and 17.8 µM [falling, partial curve, poor fit] under setting [1].

Consider `C[C@]12CC[C@@H]3c4ccc(O)cc4C(=O)C[C@H]3[C@@H]1CC[C@@H]2O`, for which the AC50 under setting [1] is 10 µM [rising, partial curve, poor fit].

On to `Cc1ccsc1-c1nc(CSCC(=O)N2CCC3(CC2)OCCO3)c(C)o1`, for which the AC50 under setting [2] was 11.2 µM [rising, partial curve] and the concentration at half-maximal activity (AC50) under setting [1] was 15.8 µM [rising, partial curve].

With `Cc1cc(C)cc(N2C(=O)NC(=O)/C(=C/c3cccn3-c3ccc(Cl)cc3)C2=O)c1`, the AC50 under setting [1] is 2.82 µM [rising, full curve, poor fit].

As for `Cc1ccc(/C=C/C(=O)C2C(=O)c3ccccc3C2=O)cc1`, the concentration at half-maximal activity (AC50) under setting [1] was 35.5 µM [falling, single point].

In the case of `COc1ccc(C)cc1NC(=O)c1cccn(Cc2ccccc2Cl)c1=O`, the AC50 under setting [2] is 6.31 µM [falling, partial curve, poor fit].

With `CCOc1cc(C2NCc3ccccc3-n3cccc32)ccc1O` (stereo not drawn), the half-maximal activity concentration (AC50) under setting [1] was 35.5 µM [rising, single point].

With `CCC(=NC(C)c1ccccc1)c1c(O)n(C)c(=O)n(C)c1=O` (stereo not drawn), the concentration at half-maximal activity (AC50) runs as follows: under setting [2], 3.16 µM [rising, full curve]; under setting [1], 7.08 µM [rising, partial curve].

As for `NC(=Nc1ccccc1)Nc1ccccc1`, the AC50 was 0.891 µM [rising, full curve, poor fit] under setting [2] and 0.631 µM [rising, full curve] under setting [1].

Regarding `N#CC(C#N)=Cc1ccc(O)c(O)c1`, under setting [2], the AC50 is 22.4 µM [falling, single point].

With `CC(C)[C@H]1C(=O)N2CCC[C@H]2[C@]2(O)O[C@](NC(=O)[C@@H]3C=C4c5cccc6[nH]cc(c56)C[C@H]4N(C)C3)(C(C)C)C(=O)N12`, the concentration at half-maximal activity (AC50) under setting [1] is 5.62 µM [rising, single point].

In the case of `Cc1oc(-c2ccccc2)nc1CN1C(=O)C(C)N=C(c2ccccc2F)c2cc(Cl)ccc21` (stereo not drawn), the AC50 is, setting by setting: under setting [2], 22.4 µM [rising, single point]; under setting [1], 35.5 µM [rising, single point].

Consider `CCCN1CCc2cc(O)cc3c2C1Cc1ccc(O)c(O)c1-3` (stereo not drawn), for which the AC50 is 11.2 µM [falling, partial curve] under setting [2] and 11.2 µM [falling, partial curve] under setting [1].

Regarding `CCN[C@]1(c2cccs2)CCCCC1=O`, the AC50 was 0.00282 µM [falling, full curve, poor fit] under setting [2] and 11.2 µM [falling, single point] under setting [1].

Turning to `CCNC(=O)NC(=O)C(C)OC(=O)c1c(C)nn(Cc2ccccc2Cl)c1Cl` (stereo not drawn), the AC50 is 12.6 µM [rising, single point] under setting [2] and 15.8 µM [rising, single point] under setting [1].

Turning to `CCn1c(O)c(/C(C)=N/N2CCCCC2c2cccnc2)c(=O)[nH]c1=S` (stereo not drawn), the AC50 under setting [1] is 22.4 µM [rising, single point].

Consider `COP(=O)(OC)OC=C(Cl)Cl`, for which the AC50 is 8.91 µM [rising, partial curve, poor fit] under setting [2] and 1.58 µM [rising, partial curve] under setting [1].

As for `CC(C)C(Br)C(=O)NC(N)=O` (stereo not drawn), the AC50 by setting is: under setting [2], 20 µM [falling, single point]; under setting [1], 0.000794 µM [rising, full curve, poor fit].

On to `CCOP(=S)(OCC)SCn1c(=O)oc2cc(Cl)ccc21`, for which the AC50 is 11.2 µM [falling, partial curve, poor fit] under setting [2] and 22.4 µM [rising, single point] under setting [1].

`NC(=O)CI`: the concentration at half-maximal activity (AC50) is, setting by setting: under setting [2], 35.5 µM [falling, single point]; under setting [1], 35.5 µM [falling, single point].

Turning to `C[N+]1(C)C2CC[C@H]1CC(OC(=O)[C@@H](CO)c1ccccc1)C2` (stereo partly drawn), the AC50 under setting [2] is 0.00891 µM [falling, full curve, poor fit].

On to `CC(C)NCC(O)COc1cccc2[nH]ccc12` (stereo not drawn), for which the AC50 under setting [1] was 126 nM [falling, single point] and 6.31 µM [falling, single point].

On to `CCCC(O)C(CC)CO` (stereo not drawn), for which the half-maximal activity concentration (AC50) reads like this: under setting [2], 2.51 µM [falling, single point]; under setting [1], 35.5 µM [falling, single point].

As to `[Cl-].[Cl-].[Hg+2]`, the AC50 is 1 µM [falling, full curve] under setting [2] and 1.26 µM [falling, full curve] under setting [1].

With `COCCCn1c(N)c(C(=O)NCCC(C)C)c2nc3ccccc3nc21`, the AC50 under setting [2] was 25.1 µM [falling, single point] and the AC50 under setting [1] is 35.5 µM [falling, single point].

On to `C(#CCN1CCCC1)CN1CCCC1`, for which the AC50 under setting [1] is 3.55 µM [rising, partial curve, poor fit].

Consider `COc1ccc2[nH]c3c(c2c1)CCNC3`, for which the half-maximal activity concentration (AC50) under setting [1] is 0.00562 µM [falling, full curve, poor fit].

On to `O=c1[nH]sc2cc(F)ccc12`, for which the AC50 under setting [2] was 3.16 µM [falling, single point] and the AC50 under setting [1] is 22.4 µM [falling, single point].

`COc1cccc(-n2c(SCC(=O)c3ccc(Cl)cc3)nc3c([nH]c4ccccc43)c2=O)c1`: the AC50 is 11.2 µM [falling, partial curve] under setting [2] and 7.08 µM [falling, partial curve] under setting [1].

`CN(C)S(=O)(=O)c1ccc(C(=O)NNc2nc(-c3ccccc3)c3cc(Br)ccc3n2)cc1`: the AC50 under setting [2] was 25.1 µM [rising, partial curve] and the AC50 under setting [1] was 31.6 µM [rising, single point].

Consider `CS(=O)(=O)Nc1ccc(Cc2noc(-c3ccc4[nH]cc(CCN)c4c3)n2)cc1`, for which the half-maximal activity concentration (AC50) under setting [1] was 1 µM [falling, full curve].

For `Cc1ccc(NC(=O)COc2ccc(-n3ccnc3)cc2)cc1Cl`, the AC50 reads like this: under setting [2], 5.01 µM [rising, partial curve]; under setting [1], 11.2 µM [rising, partial curve].

In the case of `O=CC(Cl)P(=O)(N1CCCCC1)N1CCCCC1` (stereo not drawn), the AC50 under setting [1] was 35.5 µM [rising, single point].

For the compound `CCNc1nc(Cl)nc(NCC)n1`, the concentration at half-maximal activity (AC50) under setting [2] is 35.5 µM [falling, single point].

As to `COc1ccccc1OP(=O)(Nc1cccnc1)Oc1ccccc1OC`, the AC50 under setting [1] is 22.4 µM [rising, single point].
